No constants are given. Whether binding was seen depends on the method and setting. Some results given as binding are weak or reduced against the parent protein; the word gives no strength. Sequences can lack the tags named with a protein.
Assays:
Assay in all cases: two-hybrid; Gal4 system, vectors pGBT9 and pGAD10 or pGAD424, yeast reporter strain Y187, beta-galactosidase filter assay
[1] = biological target: T1, GIPC1 (GAIP C-Terminus-Interacting Protein PDZ Domain Containing Family, Member 1), full-length, yeast two-hybrid fusion (UniProt O14908)
T1 sequence: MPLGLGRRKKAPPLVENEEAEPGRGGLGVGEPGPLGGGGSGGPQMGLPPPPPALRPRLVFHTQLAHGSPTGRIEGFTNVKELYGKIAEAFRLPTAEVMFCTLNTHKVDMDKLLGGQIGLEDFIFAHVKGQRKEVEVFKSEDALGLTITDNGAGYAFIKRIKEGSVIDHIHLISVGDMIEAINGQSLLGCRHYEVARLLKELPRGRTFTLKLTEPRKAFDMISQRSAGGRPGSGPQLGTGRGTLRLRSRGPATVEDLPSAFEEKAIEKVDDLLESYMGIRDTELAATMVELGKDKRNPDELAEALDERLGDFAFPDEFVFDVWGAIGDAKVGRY

[2] = biological target: T2, human GIPC2, yeast two-hybrid fusion (human) (UniProt Q8TF65)
T2 sequence: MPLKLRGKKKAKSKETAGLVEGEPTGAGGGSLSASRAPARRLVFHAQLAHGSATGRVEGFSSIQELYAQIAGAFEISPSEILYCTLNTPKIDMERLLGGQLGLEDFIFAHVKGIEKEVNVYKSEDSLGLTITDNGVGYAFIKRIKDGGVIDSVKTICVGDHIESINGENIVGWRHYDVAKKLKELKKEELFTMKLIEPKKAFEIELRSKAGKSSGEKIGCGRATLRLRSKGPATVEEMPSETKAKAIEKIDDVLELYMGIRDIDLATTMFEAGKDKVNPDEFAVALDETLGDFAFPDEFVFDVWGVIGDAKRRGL

[3] = biological target: T3, human GIPC3, yeast two-hybrid fusion (human) (UniProt Q8TF64)
T3 sequence: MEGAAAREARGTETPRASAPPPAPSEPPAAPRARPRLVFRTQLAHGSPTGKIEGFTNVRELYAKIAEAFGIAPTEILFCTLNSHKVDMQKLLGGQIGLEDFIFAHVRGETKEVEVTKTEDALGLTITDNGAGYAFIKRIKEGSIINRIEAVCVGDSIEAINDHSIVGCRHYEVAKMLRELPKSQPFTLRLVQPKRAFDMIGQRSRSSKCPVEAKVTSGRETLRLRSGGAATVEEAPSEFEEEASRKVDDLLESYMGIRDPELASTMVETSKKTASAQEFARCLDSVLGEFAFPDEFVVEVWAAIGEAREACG

- binding [1]: binds
- binding [2]: no binding
- binding [3]: no binding
B1: SH3BP4 (SH3-domain binding protein 4), yeast two-hybrid fusion (protein, UniProt Q9JJS5 1-961)
chain: MAAQRIRAANSSGLPRCKSEGTLIDLSEGFSETSFNDVKVPSPSALLVDNPTPFGNAKEVIAIKDYCPNNFTTLKFSKGDHLYVLDTSGGEWWYAHNTTEMGYIPSSYVQPLNYRNSTLSDSGMIDNLPDSPDEVAKELDLLGGWTDDQKQSGRPYSNNPFWNGVRTNPFLNGNAQPSMDELNPKSTVDLLLFDTGTSSFTESSSATTNSTGNIFDELPATNGIHLEQPVKRDNPFFRSKRSYSLSELSVLQAKSDAPPTSSFFTGLKSPAPEQFQSREDFRTAWLNHRKLARSCHDLDLLGQSPGWGQTQAVETNIVCKLDSSGGSVQLPDTSISIHVPEGHVAPGETQQISMKALLDPPLDLNSDRSTSISPVVEVKLSNLEVSTFIILEMKVSAEVKGDIFSKSTVVLQCLRSDSKEGPYAPIPLAYSYGDTIQVQLDNLEPCMYLAIVAQGSNILYPSTVWDFIHKRVTVGLYGPKHIHPSFKTVVTIFGHDCAPKTLLVTEVTRQAPSPAPVALQLWGKHQFILSRPQDLRVCMFSNMTNYDVKSNEQAKVVRGFQMKLGKVSRLIFSVISQNPNELSDFTLRVQVKDDQDTILTQFCVQTPQPPPKSAIKPSGQRRFLKKNEVGKIILSPFVVTTKYPTFQDRPVSSLKFGKLLKTVVRQNKSHYLLEYKKGDVVALLSEERIRLKGQLWTKEWYIGYYQGKVGLVHTKNVLVVGKARPSLFSGPELSTSVLLEQILRPCKFLTYIYASVRTLLMENISSWRAFADALGYGNLPLTFFCRAELDSEPERVASVLEKLKEDCNNPDNKDRKSFQKELVMALLKMDCQGLVVRLIQDFVLLTTAVEVAQRWRELAEKLAKVSKQQMDAYESPHRDRNGVVDSEAMWKPAYDFLLTWSHQIGDSYRDVIQELHIGLDKMKNPITRRWKHLTGTLILVNSLDILRAAAFSPADHDDFVI
